These are yes or no findings as the source states them, for the method shown. Binding seen in cells or lysates may run through a third protein. Some binding calls cover weakened binding; strength is not graded here. For part of these data: Tags and fused reporters may be left off the sequences shown.
Tests used:
[1] = target: T1, Arabidopsis ARGONAUTE 1 fused to a split YFP half (Arabidopsis thaliana) (UniProt O04379); assay: split reporter; sYFPn and sYFPc fusions co-agroinfiltrated into N. benthamiana leaves, YFP fluorescence by confocal laser scanning microscopy
T1 sequence: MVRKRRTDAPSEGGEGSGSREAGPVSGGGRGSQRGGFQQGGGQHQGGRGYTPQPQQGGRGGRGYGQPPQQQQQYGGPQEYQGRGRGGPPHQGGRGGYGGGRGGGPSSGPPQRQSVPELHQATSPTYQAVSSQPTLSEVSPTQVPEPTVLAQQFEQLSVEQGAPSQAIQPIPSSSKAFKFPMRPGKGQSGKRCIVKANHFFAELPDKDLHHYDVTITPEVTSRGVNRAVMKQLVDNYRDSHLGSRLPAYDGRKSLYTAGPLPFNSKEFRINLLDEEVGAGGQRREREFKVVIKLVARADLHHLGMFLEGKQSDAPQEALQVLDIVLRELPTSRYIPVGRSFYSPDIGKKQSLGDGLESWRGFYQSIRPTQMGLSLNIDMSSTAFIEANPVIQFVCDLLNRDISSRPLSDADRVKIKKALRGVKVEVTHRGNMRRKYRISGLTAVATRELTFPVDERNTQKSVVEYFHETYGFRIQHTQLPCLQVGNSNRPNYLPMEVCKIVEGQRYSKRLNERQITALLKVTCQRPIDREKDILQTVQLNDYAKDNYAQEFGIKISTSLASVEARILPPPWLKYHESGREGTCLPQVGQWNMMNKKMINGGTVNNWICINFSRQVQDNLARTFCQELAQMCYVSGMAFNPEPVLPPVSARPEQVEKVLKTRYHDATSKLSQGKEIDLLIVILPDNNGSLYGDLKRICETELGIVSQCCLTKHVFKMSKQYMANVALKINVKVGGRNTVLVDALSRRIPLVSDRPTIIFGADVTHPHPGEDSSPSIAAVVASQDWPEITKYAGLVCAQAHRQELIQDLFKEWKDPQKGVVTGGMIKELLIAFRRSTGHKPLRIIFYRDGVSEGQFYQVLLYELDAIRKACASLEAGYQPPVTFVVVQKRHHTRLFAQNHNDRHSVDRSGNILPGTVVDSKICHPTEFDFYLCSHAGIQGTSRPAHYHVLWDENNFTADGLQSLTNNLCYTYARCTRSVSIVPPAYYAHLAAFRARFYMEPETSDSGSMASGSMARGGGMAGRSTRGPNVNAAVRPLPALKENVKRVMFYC

Chains of the proteins cited; added tags and fusions are not shown.
UniProt P17769: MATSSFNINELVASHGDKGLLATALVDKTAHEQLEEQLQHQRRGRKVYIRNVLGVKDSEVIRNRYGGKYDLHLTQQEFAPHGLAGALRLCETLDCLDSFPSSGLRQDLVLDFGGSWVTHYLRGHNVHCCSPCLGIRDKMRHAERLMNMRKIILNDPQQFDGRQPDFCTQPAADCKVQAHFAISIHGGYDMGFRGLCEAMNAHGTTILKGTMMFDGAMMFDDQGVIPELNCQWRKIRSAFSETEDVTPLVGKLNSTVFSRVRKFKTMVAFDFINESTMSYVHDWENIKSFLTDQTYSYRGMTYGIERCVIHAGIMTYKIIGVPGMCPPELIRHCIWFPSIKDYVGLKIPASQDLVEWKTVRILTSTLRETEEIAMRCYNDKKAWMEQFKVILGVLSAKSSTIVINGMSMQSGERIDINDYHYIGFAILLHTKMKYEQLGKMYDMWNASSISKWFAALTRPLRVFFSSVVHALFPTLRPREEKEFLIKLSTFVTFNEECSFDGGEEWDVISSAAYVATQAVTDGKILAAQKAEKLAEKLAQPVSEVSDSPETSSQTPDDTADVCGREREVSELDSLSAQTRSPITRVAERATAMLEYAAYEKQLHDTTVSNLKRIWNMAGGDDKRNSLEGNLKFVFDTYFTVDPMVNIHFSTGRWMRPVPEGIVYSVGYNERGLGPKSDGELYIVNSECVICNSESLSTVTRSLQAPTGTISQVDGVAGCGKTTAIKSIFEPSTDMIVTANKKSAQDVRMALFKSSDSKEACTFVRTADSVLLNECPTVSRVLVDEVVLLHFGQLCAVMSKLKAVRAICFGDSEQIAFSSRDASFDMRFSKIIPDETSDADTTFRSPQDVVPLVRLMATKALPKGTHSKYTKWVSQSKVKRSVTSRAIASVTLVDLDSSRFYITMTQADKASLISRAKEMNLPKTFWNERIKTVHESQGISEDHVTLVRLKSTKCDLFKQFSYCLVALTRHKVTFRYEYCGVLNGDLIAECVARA

[2] = target: cucumber mosaic virus (Fny strain) 1a protein fused to a split YFP half (cucumber mosaic virus, strain Fny) (UniProt P17769); assay: as above
[3] = target: cucumber mosaic virus (Fny strain) 1a protein with N-terminal red fluorescent protein (cucumber mosaic virus, strain Fny) (UniProt P17769); assay: co-IP; extracts of agroinfiltrated N. benthamiana leaves, RFP-Trap beads, immunoblot with anti-GFP and anti-RFP

Molecule | binding [1] | binding [2] | binding [3]
cucumber mosaic virus (Fny strain) 1a protein fused to a split YFP half (from UniProt P17769 1-993) | no binding | binds | 
Arabidopsis ARGONAUTE 1 fused to green fluorescent protein (protein, UniProt O04379 1-1048) MVRKRRTDAPSEGGEGSGSREAGPVSGGGRGSQRGGFQQGGGQHQGGRGYTPQPQQGGRGGRGYGQPPQQQQQYGGPQEYQGRGRGGPPHQGGRGGYGGGRGGGPSSGPPQRQSVPELHQATSPTYQAVSSQPTLSEVSPTQVPEPTVLAQQFEQLSVEQGAPSQAIQPIPSSSKAFKFPMRPGKGQSGKRCIVKANHFFAELPDKDLHHYDVTITPEVTSRGVNRAVMKQLVDNYRDSHLGSRLPAYDGRKSLYTAGPLPFNSKEFRINLLDEEVGAGGQRREREFKVVIKLVARADLHHLGMFLEGKQSDAPQEALQVLDIVLRELPTSRYIPVGRSFYSPDIGKKQSLGDGLESWRGFYQSIRPTQMGLSLNIDMSSTAFIEANPVIQFVCDLLNRDISSRPLSDADRVKIKKALRGVKVEVTHRGNMRRKYRISGLTAVATRELTFPVDERNTQKSVVEYFHETYGFRIQHTQLPCLQVGNSNRPNYLPMEVCKIVEGQRYSKRLNERQITALLKVTCQRPIDREKDILQTVQLNDYAKDNYAQEFGIKISTSLASVEARILPPPWLKYHESGREGTCLPQVGQWNMMNKKMINGGTVNNWICINFSRQVQDNLARTFCQELAQMCYVSGMAFNPEPVLPPVSARPEQVEKVLKTRYHDATSKLSQGKEIDLLIVILPDNNGSLYGDLKRICETELGIVSQCCLTKHVFKMSKQYMANVALKINVKVGGRNTVLVDALSRRIPLVSDRPTIIFGADVTHPHPGEDSSPSIAAVVASQDWPEITKYAGLVCAQAHRQELIQDLFKEWKDPQKGVVTGGMIKELLIAFRRSTGHKPLRIIFYRDGVSEGQFYQVLLYELDAIRKACASLEAGYQPPVTFVVVQKRHHTRLFAQNHNDRHSVDRSGNILPGTVVDSKICHPTEFDFYLCSHAGIQGTSRPAHYHVLWDENNFTADGLQSLTNNLCYTYARCTRSVSIVPPAYYAHLAAFRARFYMEPETSDSGSMASGSMARGGGMAGRSTRGPNVNAAVRPLPALKENVKRVMFYC |  |  | no binding
